Results are given in words; binding and its absence hold for the method and conditions named. In cells and extracts the contact can be indirect. A result given as binding can be weak or reduced; the word gives no strength.
Target: glutathione-S-transferase-Rhotekin-RhoA-binding domain (GST-RBD) (UniProt Q8C6B2)
Experiment: pull-down; RhoA activation assay: GST-RBD bound to glutathione-sepharose beads incubated with lysates of COS-7 cells (transfected with GFP-RhoA constructs or not; with or without EGF, with or without U0126); buffer 50 mM Tris-HCl pH 7.6, 150 mM NaCl, 1% Triton X-100, 10 mM MgCl2; 4°C, 2 h; immunoblot with anti-GFP or anti-RhoA; only the target purified

Amino acid sequences for entries named in this document (tags omitted). A change or cut given only in a name is not applied to a line headed by its entry.
UniProt Q8C6B2: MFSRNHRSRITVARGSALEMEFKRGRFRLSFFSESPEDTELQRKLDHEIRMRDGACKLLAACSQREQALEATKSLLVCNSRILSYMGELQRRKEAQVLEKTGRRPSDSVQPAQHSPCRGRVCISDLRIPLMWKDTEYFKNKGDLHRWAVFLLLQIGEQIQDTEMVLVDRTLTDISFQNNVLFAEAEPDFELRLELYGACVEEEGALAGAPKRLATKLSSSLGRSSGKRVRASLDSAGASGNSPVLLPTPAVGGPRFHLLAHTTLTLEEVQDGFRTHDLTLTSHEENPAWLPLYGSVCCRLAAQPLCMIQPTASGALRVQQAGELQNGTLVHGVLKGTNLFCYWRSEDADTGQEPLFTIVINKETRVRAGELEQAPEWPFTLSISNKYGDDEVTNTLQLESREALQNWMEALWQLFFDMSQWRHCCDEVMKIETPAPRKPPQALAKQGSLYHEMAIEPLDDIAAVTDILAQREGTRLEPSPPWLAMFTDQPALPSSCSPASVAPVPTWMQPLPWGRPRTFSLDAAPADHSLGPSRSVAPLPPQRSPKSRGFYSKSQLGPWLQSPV
UniProt P61586: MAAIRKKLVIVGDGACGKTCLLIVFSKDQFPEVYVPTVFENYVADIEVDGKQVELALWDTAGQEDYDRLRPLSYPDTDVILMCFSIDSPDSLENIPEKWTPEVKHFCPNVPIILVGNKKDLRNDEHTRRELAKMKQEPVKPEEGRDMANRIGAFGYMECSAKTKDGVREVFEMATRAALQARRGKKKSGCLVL

Substance | binding
GFP-RhoA (from UniProt P61586 1-193) | binds
GFP-RhoA S88E/T100E (from UniProt P61586 1-193) | binds

Reference: PMC4729484
